Results taken from the supplement of paper PMC10849652.
This is one part of the list.

Protein sequences, listed by entry. Tags and fused reporters are not part of them. Lines headed by an entry give the natural chain unless they say otherwise; changes in a name come on top.
UniProt Q93100: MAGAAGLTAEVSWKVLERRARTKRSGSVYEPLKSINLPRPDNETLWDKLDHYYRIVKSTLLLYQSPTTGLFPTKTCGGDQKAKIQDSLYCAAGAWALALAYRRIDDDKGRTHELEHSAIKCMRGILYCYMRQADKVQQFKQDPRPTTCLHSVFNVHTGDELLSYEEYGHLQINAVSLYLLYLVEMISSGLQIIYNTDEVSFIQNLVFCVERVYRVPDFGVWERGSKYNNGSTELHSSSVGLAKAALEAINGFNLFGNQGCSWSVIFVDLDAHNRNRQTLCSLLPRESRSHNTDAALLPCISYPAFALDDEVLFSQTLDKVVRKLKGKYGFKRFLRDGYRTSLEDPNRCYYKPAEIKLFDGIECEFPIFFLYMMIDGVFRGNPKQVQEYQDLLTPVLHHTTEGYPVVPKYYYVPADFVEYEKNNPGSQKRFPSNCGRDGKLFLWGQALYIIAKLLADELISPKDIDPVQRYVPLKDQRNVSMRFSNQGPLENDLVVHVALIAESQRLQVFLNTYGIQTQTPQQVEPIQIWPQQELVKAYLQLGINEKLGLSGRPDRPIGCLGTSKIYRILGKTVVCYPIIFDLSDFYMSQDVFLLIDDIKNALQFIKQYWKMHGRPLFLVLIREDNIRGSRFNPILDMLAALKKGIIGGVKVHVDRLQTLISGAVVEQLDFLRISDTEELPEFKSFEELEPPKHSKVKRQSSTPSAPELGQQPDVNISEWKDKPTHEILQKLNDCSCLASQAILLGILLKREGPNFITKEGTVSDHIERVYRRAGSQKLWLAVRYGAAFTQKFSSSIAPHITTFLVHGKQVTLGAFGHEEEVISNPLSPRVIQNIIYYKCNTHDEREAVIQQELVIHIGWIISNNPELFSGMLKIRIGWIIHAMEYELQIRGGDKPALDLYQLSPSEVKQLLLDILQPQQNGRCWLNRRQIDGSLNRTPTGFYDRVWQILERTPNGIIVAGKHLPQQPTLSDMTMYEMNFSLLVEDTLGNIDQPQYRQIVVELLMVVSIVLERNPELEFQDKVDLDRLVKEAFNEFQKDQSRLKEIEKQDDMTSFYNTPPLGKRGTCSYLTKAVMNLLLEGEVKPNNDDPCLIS
UniProt Q13526, whole entry, looked up: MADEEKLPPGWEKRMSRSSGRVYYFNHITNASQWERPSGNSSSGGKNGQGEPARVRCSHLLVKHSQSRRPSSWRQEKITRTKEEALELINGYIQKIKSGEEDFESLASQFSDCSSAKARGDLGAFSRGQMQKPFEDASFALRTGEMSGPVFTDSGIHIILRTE
UniProt Q96HS1, whole entry, looked up: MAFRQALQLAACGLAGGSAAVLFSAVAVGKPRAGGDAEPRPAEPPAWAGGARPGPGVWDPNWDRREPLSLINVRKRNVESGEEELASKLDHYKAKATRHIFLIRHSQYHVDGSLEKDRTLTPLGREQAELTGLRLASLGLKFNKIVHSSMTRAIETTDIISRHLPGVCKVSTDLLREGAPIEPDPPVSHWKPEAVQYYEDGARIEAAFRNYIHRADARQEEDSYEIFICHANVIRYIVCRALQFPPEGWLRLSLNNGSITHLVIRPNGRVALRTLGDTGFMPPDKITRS
UniProt P37287: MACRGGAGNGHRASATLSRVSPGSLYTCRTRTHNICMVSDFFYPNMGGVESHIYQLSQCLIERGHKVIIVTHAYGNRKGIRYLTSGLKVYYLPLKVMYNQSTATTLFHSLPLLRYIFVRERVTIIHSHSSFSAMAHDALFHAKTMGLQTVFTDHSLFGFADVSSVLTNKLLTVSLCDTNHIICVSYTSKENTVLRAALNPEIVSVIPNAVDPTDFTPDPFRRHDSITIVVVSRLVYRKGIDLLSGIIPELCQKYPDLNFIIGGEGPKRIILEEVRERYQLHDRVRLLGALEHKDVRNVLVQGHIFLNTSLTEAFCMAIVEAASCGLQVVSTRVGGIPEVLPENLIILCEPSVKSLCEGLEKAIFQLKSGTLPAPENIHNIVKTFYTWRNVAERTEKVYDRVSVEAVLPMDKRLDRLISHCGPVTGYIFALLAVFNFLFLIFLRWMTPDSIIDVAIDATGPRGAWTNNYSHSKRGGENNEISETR
PIGBOS1, A0A0B4J2F0, UniProt A0A0B4J2F0, whole entry, looked up: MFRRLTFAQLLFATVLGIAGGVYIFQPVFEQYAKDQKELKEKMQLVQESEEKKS
UniProt P30613: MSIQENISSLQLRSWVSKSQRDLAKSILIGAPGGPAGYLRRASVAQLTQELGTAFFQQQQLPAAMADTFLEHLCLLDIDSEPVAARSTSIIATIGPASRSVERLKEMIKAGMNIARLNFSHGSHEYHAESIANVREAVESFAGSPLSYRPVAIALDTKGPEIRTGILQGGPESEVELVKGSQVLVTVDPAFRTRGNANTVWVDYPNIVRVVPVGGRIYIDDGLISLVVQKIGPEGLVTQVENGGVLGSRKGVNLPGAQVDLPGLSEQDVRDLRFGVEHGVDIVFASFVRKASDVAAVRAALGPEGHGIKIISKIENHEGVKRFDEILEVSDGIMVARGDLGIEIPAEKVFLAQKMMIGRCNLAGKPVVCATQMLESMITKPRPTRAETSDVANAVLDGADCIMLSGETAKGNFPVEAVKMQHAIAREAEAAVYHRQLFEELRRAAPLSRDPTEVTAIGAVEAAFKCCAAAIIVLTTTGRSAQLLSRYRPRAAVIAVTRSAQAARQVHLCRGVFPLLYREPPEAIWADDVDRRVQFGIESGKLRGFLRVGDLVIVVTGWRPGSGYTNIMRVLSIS
UniProt Q8NCC3: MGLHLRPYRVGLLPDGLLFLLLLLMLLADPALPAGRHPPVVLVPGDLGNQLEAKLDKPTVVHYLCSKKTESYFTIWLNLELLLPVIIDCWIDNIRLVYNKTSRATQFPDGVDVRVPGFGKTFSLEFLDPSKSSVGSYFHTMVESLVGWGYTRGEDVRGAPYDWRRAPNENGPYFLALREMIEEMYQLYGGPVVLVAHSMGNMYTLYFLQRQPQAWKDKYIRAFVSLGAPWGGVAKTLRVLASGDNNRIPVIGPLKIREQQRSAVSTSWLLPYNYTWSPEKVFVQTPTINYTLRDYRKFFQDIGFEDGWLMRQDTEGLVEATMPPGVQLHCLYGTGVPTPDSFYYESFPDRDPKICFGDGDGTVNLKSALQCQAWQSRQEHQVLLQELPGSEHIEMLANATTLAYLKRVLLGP
UniProt Q8NHP8: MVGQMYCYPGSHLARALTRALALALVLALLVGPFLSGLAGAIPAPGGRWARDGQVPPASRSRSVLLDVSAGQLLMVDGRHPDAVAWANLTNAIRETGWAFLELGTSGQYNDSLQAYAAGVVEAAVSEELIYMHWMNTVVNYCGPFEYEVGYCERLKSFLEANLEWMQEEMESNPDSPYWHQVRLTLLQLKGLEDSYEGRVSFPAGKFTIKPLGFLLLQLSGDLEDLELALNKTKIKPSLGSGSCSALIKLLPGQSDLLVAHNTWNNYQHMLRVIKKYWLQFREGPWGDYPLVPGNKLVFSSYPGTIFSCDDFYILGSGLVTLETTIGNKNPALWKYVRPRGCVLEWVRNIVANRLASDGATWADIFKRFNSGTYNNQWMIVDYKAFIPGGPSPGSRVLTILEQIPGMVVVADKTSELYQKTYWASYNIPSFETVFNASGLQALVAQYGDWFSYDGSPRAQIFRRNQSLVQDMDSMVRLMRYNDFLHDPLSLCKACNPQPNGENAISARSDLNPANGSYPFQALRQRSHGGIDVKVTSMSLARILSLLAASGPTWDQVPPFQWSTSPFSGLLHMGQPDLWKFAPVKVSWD
UniProt Q99623, whole entry, looked up: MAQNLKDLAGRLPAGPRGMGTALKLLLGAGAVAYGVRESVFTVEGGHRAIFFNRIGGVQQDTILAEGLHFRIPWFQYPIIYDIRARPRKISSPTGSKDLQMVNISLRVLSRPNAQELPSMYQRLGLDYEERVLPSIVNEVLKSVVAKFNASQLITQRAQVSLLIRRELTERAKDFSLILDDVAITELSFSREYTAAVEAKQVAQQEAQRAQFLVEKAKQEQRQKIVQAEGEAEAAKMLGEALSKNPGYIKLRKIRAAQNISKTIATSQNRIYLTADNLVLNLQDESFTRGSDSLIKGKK
UniProt P48739: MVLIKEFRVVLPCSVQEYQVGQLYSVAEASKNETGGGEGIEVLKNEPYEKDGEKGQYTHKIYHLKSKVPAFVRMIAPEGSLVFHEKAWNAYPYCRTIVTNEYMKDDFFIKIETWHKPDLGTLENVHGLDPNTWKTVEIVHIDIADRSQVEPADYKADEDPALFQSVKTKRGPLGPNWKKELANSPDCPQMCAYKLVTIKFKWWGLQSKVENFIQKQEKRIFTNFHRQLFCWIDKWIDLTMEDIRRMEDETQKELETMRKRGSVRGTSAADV
UniProt Q13492: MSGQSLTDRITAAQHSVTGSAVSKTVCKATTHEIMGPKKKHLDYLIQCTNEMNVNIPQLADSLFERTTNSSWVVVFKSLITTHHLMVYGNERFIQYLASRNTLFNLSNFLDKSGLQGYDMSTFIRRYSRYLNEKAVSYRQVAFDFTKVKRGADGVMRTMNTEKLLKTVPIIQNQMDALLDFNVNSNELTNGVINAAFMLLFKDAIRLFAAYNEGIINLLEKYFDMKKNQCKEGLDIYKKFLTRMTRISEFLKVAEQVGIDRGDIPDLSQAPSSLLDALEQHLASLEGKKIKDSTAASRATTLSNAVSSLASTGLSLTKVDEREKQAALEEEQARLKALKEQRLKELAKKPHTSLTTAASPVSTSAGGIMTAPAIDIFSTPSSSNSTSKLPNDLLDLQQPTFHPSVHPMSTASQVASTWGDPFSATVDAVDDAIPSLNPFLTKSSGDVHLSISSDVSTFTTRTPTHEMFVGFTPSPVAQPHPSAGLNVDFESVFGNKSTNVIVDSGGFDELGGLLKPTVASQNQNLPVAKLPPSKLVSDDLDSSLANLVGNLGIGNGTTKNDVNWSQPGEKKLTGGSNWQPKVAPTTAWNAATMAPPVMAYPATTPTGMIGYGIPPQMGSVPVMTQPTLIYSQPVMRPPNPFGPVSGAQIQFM
UniProt Q32M88: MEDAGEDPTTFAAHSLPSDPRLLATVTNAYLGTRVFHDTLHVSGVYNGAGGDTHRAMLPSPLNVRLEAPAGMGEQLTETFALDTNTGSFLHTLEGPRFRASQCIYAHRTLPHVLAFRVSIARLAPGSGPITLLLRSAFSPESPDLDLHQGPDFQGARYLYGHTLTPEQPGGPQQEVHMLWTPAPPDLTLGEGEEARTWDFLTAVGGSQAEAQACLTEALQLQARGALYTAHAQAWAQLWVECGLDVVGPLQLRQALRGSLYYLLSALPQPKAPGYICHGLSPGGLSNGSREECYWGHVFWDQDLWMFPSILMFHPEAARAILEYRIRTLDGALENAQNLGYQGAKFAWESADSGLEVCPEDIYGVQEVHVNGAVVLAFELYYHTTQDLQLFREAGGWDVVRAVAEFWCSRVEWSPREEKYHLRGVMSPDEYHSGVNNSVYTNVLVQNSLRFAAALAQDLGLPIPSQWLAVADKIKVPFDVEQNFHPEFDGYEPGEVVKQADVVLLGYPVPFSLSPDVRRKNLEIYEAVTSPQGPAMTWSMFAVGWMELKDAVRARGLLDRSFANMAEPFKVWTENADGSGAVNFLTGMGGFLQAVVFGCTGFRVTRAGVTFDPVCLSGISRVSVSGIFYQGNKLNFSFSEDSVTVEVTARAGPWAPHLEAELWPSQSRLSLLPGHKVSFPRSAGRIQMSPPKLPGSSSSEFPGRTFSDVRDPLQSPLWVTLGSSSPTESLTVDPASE
UniProt O75167: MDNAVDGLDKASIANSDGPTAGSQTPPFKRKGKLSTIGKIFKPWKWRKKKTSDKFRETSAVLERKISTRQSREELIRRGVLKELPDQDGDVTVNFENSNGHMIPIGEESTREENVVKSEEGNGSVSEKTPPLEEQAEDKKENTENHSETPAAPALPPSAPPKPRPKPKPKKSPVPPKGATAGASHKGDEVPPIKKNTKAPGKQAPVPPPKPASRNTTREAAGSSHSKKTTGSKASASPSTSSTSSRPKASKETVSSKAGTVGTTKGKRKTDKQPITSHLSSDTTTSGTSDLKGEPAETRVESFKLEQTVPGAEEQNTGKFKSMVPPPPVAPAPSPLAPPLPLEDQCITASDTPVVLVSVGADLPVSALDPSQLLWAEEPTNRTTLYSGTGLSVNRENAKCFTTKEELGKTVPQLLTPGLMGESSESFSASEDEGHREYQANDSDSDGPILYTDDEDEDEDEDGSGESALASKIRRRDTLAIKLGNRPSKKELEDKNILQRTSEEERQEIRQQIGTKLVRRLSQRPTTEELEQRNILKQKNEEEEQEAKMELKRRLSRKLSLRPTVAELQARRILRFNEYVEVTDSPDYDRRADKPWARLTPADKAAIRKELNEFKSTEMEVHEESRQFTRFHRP
UniProt A6NDG6: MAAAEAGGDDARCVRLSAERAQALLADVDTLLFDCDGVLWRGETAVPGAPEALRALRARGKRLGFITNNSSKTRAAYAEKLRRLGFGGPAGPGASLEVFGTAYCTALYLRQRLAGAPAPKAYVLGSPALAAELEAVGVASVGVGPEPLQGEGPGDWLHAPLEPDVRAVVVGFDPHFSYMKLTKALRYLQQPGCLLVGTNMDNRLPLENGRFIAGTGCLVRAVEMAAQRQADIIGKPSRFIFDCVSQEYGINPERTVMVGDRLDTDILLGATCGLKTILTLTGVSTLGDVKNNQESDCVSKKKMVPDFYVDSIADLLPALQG

Assays:
Test in all cases: log2 fold change, soluble protein after heating vs DMSO (PISA); higher = thermal stabilisation; K562 cells, 10 uM, 30 min; active = over 0.2 and 3.5 SD of the protein, either way, in both replicates (recomputed)
[1] = compound: C1=CC=C(C=C1)[C@H](COC2=CC3=C(C=C2)NC(=O)N3)NC(=O)C4=CC=CN(C4=O)CC5=CC(=C(C=C5)F)F
How it was run: (§1)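 K562 cells at 2×10^6 cells/mL were given 10 μM compound for 30 min. Aliquots then went through 3 min of heating across 48°C-58°C, were pooled, and were extracted in PBS with 0.5% NP-40 at 4°C, and the supernatant after 21,000xg for 90 min was quantified by TMTpro 16plex LC-MS/MS with channel sums equalised. Thermal stability relative to control samples, from duplicates, is given as log2 fold change.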

[2] = compound: CC1=C(SC2=C1C(=N[C@H](C3=NN=C(N32)C)CC(=O)N)C4=CC=C(C=C4)Cl)C
How it was run: as §1

[3] = compound: CC1=C2C(=CC=C1)N=C(N(C2=O)C3=CC=CC=C3C)CN4C=NC5=C(N=CN=C54)N
How it was run: as §1

[4] = compound: Cc1sc2c(c1C)C(c1ccc(Cl)cc1)=N[C@@H](CC(=O)OC(C)(C)C)c1nnc(C)n1-2
How it was run: as §1

[5] = compound: c1ccc([C@@H]2C[C@H]2NC2CCNCC2)cc1
How it was run: as §1

Measured: log2 fold change

PHKB isoform 3 (UniProt Q93100)
inactive: [1] -0.13 | [2] -0.021 | [3] 0.068 | [4] 0.003 | [5] 0.005

PIN1 (UniProt Q13526)
inactive: [1] 0.029 | [2] 0.02 | [3] 0.03 | [4] -0.033 | [5] -0.006

PICALM (UniProt H0YEY8)
inactive: [1] 0.091 | [2] 0.09 | [3] 0.15 | [4] 0.041 | [5] 0.055

PGAM5 (UniProt Q96HS1)
inactive: [1] -0.014 | [2] 0 | [3] -0.095 | [4] 0.151 | [5] 0.002

PIGL (UniProt Q9Y2B2)
inactive: [1] 0 | [2] -0.005 | [3] 0.019 | [4] -0.006 | [5] 0.089

PHF5A (UniProt Q7RTV0)
inactive: [1] 0.048 | [2] -0.024 | [3] 0.018 | [4] 0.002 | [5] 0.018

2 entries picked at random from those above, as already listed:
PICALM (UniProt H0YEY8)
inactive: [1] 0.091 | [2] 0.09 | [3] 0.15 | [4] 0.041 | [5] 0.055

PGAM5 (UniProt Q96HS1)
inactive: [1] -0.014 | [2] 0 | [3] -0.095 | [4] 0.151 | [5] 0.002

The results go on:

PIGA (UniProt P37287)
inactive: [1] -0.004 | [2] -0.006 | [3] 0.018 | [4] -0.012 | [5] -0.023

PEX2 (UniProt P28328)
inactive: [1] 0.023 | [2] -0.006 | [3] -0.067 | [4] 0.058 | [5] -0.008

PIGBOS1, A0A0B4J2F0
inactive: [1] -0.14 | [2] 0.143 | [3] -0.041 | [4] -0.002 | [5] -0.017

PISD (UniProt Q9UG56)
inactive: [1] 0.002 | [2] -0.024 | [3] 0.079 | [4] -0.011 | [5] 0.043

PKP3 isoform 2 (UniProt Q9Y446)
inactive: [1] 0.012 | [2] -0.136 | [3] 0.046 | [4] 0.052 | [5] -0.112

PIK3R1 (UniProt P27986)
inactive: [1] -0.059 | [2] 0.019 | [3] 0.138 | [4] 0.005 | [5] -0.027

PKLR (UniProt P30613)
inactive: [1] 0.012 | [2] 0.028 | [3] -0.018 | [4] -0.01 | [5] 0.006

PLA2G15 (UniProt Q8NCC3)
inactive: [1] 0.02 | [2] -0.01 | [3] -0.034 | [4] -0.001 | [5] 0

PLBD2 (UniProt Q8NHP8)
inactive: [1] 0.011 | [2] 0.01 | [3] 0.01 | [4] -0.006 | [5] 0.007

PLEC (UniProt Q15149)
inactive: [1] 0.073 | [2] -0.066 | [3] 0.024 | [4] 0.101 | [5] 0

PHB2 (UniProt Q99623)
inactive: [1] 0.024 | [2] 0.008 | [3] 0 | [4] -0.001 | [5] 0.016

PITPNB isoform 3 (UniProt P48739)
inactive: [1] -0.003 | [2] 0.054 | [3] 0.043 | [4] -0.021 | [5] -0.028

PEX16 isoform 2 (UniProt Q9Y5Y5)
inactive: [1] -0.01 | [2] 0.095 | [3] 0.087 | [4] -0.031 | [5] -0.048

PICALM (UniProt Q13492)
inactive: [1] -0.001 | [2] 0.072 | [3] 0.033 | [4] -0.016 | [5] 0

PIR (UniProt O00625)
inactive: [1] 0.016 | [2] 0.064 | [3] 0.027 | [4] -0.029 | [5] 0.002

PGGHG (UniProt Q32M88)
inactive: [1] -0.052 | [2] -0.09 | [3] -0.088 | [4] -0.084 | [5] 0.213

PHACTR2 isoform 4 (UniProt O75167)
inactive: [1] 0.076 | [2] 0.002 | [3] 0.05 | [4] 0.018 | [5] 0.01

PGP (UniProt A6NDG6)
inactive: [1] -0.027 | [2] 0.021 | [3] 0.007 | [4] 0.001 | [5] -0.013

PITRM1 isoform 2 (UniProt Q5JRX3)
inactive: [1] 0.064 | [2] -0.08 | [3] 0.048 | [4] -0.083 | [5] 0
